Assay results published in patent US11795151B2, “Benzotriazole compound” (MIYOSHI OIL & FAT CO., LTD., priority 2017, dated 2023).

Key:
[1] = Reactivity in various monomers (2): transparency of polymer copolymerized at maximum solubility; type: physicochemical; parameters: key: ∘: Clear with no cloudiness; Δ: Some cloudiness observed, but clear; x: Poor transparency due to cloudiness observed; conditions: Vinyl acetate, compound at maximum solubility concentration
[2] = Evaluation of reactivity (1): copolymerization with methyl methacrylate, reaction rate by NMR; conditions: copolymerization with methyl methacrylate at 90 to 96° C.
[3] = Ultraviolet-visible absorbance of spin-coated copolymer films; type: physicochemical; conditions: film thickness 1 to 10 μm, ultraviolet-visible absorption spectrum

| SMILES | Transparency of polymer [1] | Reaction rate ([2]; 1 h) | Reaction rate ([2]; 5 h) | Reaction rate ([2]; 10 h) | Yellowing inhibition and long wavelength absorption of copolymer film [3] |
| --- | --- | --- | --- | --- | --- |
| C=C(C)C(=O)OCCc1ccc(O)c(-n2nc3ccccc3n2)c1 [Compound 11, reference compound] | Δ | 22.3% | 47.3% |  |  |
| C=CCSc1ccc2nn(-c3cc(C)cc(C(C)(C)C)c3O)nc2c1 [Compound 10, reference compound] |  |  |  | 5.0% |  |
| C=C(C)C(=O)OCCCSc1ccc2nn(-c3cc(C)cc(C(C)(C)C)c3O)nc2c1 [Compound 3] | Δ | 60.5% | 98.6% |  |  |
| C=C(C)C(=O)OCCCCCCSc1ccc2nn(-c3cc(C)cc(C(C)(C)C)c3O)nc2c1 [Compound 4] |  | 61.0% | 98.6% |  | superior to Compounds 11 and 12 in terms of yellowing inhibition and long wavelength absorption |
| C=C(C)C(=O)Oc1ccc(Sc2ccc3nn(-c4cc(C)cc(C(C)(C)C)c4O)nc3c2)cc1 [Compound 5] | Δ | 22.0% | 98.0% |  |  |
| C=C(C)C(=O)OCCCCCCOc1ccc(Sc2ccc3nn(-c4cc(C)cc(C(C)(C)C)c4O)nc3c2)cc1 [Compound 6] | Δ | 78.7% | 98.3% |  |  |
| C=CC(=O)OCCCCCCSc1ccc2nn(-c3cc(C)cc(C(C)(C)C)c3O)nc2c1 [Compound 1] | Δ | 20.0% | 100.0% |  | superior to Compounds 11 and 12 in terms of yellowing inhibition and long wavelength absorption |
| C=C(C)C(=O)OCCSc1ccc2nn(-c3cc(C)cc(C(C)(C)C)c3O)nc2c1 [Compound 2] | Δ | 50.6% | 97.7% |  |  |
